Consider 65 compounds from PubChem BioAssay AID493014 (National Center for Advancing Translational Sciences (NCATS), 2011).

The experiment can be described thus: qHTS Assay to Find Inhibitors of Chronic Active B-Cell Receptor Signaling. As to conditions: ABC-DLBCL IkBa-CBG/CBR reporter, luminescence ratio (green luciferase fused to IkBa over red control in TMD8 lymphoma cells), 4 h. In outline: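 TMD8 human ABC-DLBCL cells with doxycycline-inducible IκBα–green luciferase fusion and unfused red luciferase, in 0.5% FBS medium; compounds up to 46 uM, 4 h at 37C. Green/red luminescence ratio, filter-overlap corrected, fitted to concentration-response curves.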

The mark [1] stands for this setting: measured here: CBR red luminescence, cell number.

Structures are written as SMILES. The list shows a part of the results. Shown are side measurements of this screen, not its main read-out; they come without a call. Compounds called inactive in the main read-out are mostly missing here. Words in brackets tell the shape of the fitted curve; partial curves, single points and poor fits give uncertain potencies.

For the compound `COc1cccc(OC)c1-c1nn2c(-c3ccccc3Cl)nnc2s1`, the AC50 under setting [1] was 0.316 µM [rising, full curve, poor fit].
Same read-out and setting: under `CCCCn1c(SCC(=O)Nc2cccc(OC)c2)nc2ccsc2c1=O` stands 12.6 µM [falling, partial curve].
The same measure, in the same setting: under `Cc1cc(C)c(C)c(S(=O)(=O)NCC(=O)Nc2ccc(F)cc2)c1C` stands 6.31 µM [falling, full curve]; under `N=C(N)SCc1nc2ccccn2c1Br`, 29.1 µM [falling, single point].
Turning to `O=C(Cc1ccccc1)NCCN1CCCC1`, the AC50 under setting [1] is 0.0891 µM [rising, full curve, poor fit].
Same read-out and setting: then `CCNC(=S)N1CCN(CCN=CC2=C(O)CC(c3ccco3)CC2=O)CC1` (stereo unspecified), with 18.4 µM [rising, partial curve, poor fit]; and `CCOc1ccc(C2=Nc3ccc(Br)cc3C(c3ccc(N4CCOCC4)cc3)=NN2)cc1`, with 4.11 µM [rising, full curve, poor fit].
On the same count and under the same terms, then `COc1ccc(-n2cc(-c3ccccc3)c3c(NCc4cccc(Cl)c4)ncnc32)cc1`, with 35.5 µM [rising, single point]; and `Cc1c(C(=O)OC(C)C)sc(N)c1C(=O)OC(C)C`, with 5.17 µM [rising, partial curve, poor fit].
For `COc1ccc(N(CC(=O)NC2CCCC2)C(=O)c2ccc(C)s2)c(OC)c1`, the concentration at half-maximal activity (AC50) under setting [1] is 17.8 µM [rising, single point].
Turning to `COc1cc(/C=N/NC(N)=S)ccc1OC(=O)c1ccc(C)cc1`, the concentration at half-maximal activity (AC50) under setting [1] was 2.91 µM [rising, single point].
Same read-out and setting: then `CN(C)c1ccc(C(CNC(=O)c2cccs2)N(C)C)cc1` (stereo unspecified), with 22.4 µM [falling, partial curve, poor fit]; and `O=C(NCC(=O)N1CCN(Cc2ccccc2)CC1)c1ccc(Br)o1`, with 14.1 µM [rising, partial curve, poor fit].
On the same count and under the same terms, under `COc1ccc(C(C)=O)cc1COc1ccc([N+](=O)[O-])c(C)c1` stands 0.891 µM [rising, full curve, poor fit].
For `O=S(=O)(NCc1ccccc1)c1ccccc1NCc1ccc(Cl)cc1`, the AC50 under setting [1] was 29.1 µM [rising, single point].
Same read-out and setting: under `CN(CCc1ccccn1)C(=S)Nc1ccc(Cl)cc1Cl` stands 35.5 µM [rising, single point].
Same read-out and setting: then `Cc1cccc(OC(C)C(=O)N(Cc2cccs2)C2CCS(=O)(=O)C2)c1C` (stereo unspecified), with 32.6 µM [falling, partial curve, poor fit]; and `O=S(=O)(c1cnccc1N1CCN(/N=C/c2ccc(Cl)cc2)CC1)N1CCCCC1`, with 0.058 µM [rising, full curve, poor fit].
Same read-out and setting: under `O=C(COc1ccc(/C=N/NC(=O)c2ccc(O)cc2)cc1)Nc1cccc([N+](=O)[O-])c1` stands 1.41 µM [falling, full curve].
For `COc1ccccc1NC(=O)Nc1cccc(NC(C)=O)c1`, the AC50 under setting [1] is 5.62 µM [falling, partial curve, poor fit].
On the same count and under the same terms, under `Cc1cnc(NC(=O)CCc2ccccc2)s1` stands 11.2 µM [falling, single point]; under `Cc1cc(C)n(C(=O)c2ccc(NC(=O)C3CC3)cc2)n1`, 23.1 µM [rising, partial curve, poor fit]; under `COCC1CCCN(C(=O)c2cc(COc3ccc4ncccc4c3)on2)C1` (stereo unspecified), 11.2 µM [falling, partial curve].
Regarding `CCOc1cc(CN2CCN(CCOCCO)CC2)ccc1OC`, under setting [1], the AC50 was 2.59 µM [falling, partial curve, poor fit].
On the same count and under the same terms, under `COc1ccc(Nc2nc(N)nc(CSC(=S)N3CCCCC3)n2)cc1` stands 25.1 µM [falling, single point]; under `CCOc1cc(C(=O)Nc2ccc(S(=O)(=O)NC3=NCCCCC3)cc2)cc(OCC)c1OCC`, 14.1 µM [falling, single point]; under `COc1ccccc1Nc1ncnc2c1nc1n2CCCC1`, 6.31 µM [rising, partial curve].
Same read-out and setting: under `Cc1cc(-n2cnnn2)ccc1C(C)C` stands 3.98 µM [rising, full curve].
Same read-out and setting: under `CCN(CC)CCN(C)C(=O)c1ccc(OC2CCN(C(=O)C3CC3)CC2)cc1` stands 14.1 µM [rising, single point]; under `CCC(C)n1c(SCC(=O)Nc2ccccc2C(F)(F)F)nc2ccsc2c1=O` (stereo unspecified), 35.5 µM [falling, single point].
Regarding `CCc1nc(Nc2ccc3c(c2)OCO3)c2oc3ccccc3c2n1`, the AC50 under setting [1] was 3.55 µM [falling, partial curve].
On the same count and under the same terms, then `COc1ccc(NS(=O)(=O)c2ccc(NC(=S)NC(=O)c3cccc(F)c3)cc2)nn1`, with 20.6 µM [falling, partial curve, poor fit]; and `O=C(CNC(=O)c1ccco1)OCc1ccccc1F`, with 5.17 µM [rising, full curve, poor fit]; and `CCCCn1c(SCc2cc(=O)n3ccsc3n2)nc2cc(C(=O)OC)ccc2c1=O`, with 35.5 µM [falling, partial curve, poor fit].
The same measure, in the same setting: under `N#Cc1nc(COc2ccc(Br)cc2)oc1NCCCn1ccnc1` stands 25.9 µM [falling, single point]; under `O=C(CSc1ccc(Cl)cc1)Nc1cccc(NC(=O)c2ccco2)c1`, 1 µM [falling, full curve].
As to `O=C(NCCc1ccccc1)C1COc2ccccc2O1` (stereo unspecified), the AC50 under setting [1] is 6.31 µM [rising, single point].
On the same count and under the same terms, under `COC(=O)C1=C(N)Oc2cc(C)n(CCCn3ccnc3)c(=O)c2C1c1ccc(Cl)cc1` (stereo unspecified) stands 0.794 µM [falling, full curve, poor fit].
The same measure, in the same setting: then `O=C(c1ccc(Cl)c(S(=O)(=O)NCc2cccnc2)c1)N1CCCC1`, with 2.91 µM [rising, full curve, poor fit]; and `CCCCNC(=O)Nc1nnc(C(C)(C)C)s1`, with 1.12 µM [rising, partial curve, poor fit]; and `CSc1ccccc1C(=O)C1CCCN(C(=O)CCc2cccnc2)C1` (stereo unspecified), with 17.8 µM [falling, single point].
Same read-out and setting: then `Cc1cc(C)n2nc(S(=O)(=O)N(C)Cc3ccccc3)nc2n1`, with 29.1 µM [rising, single point].
As for `CCCCCn1c(=N)n(CC(O)COc2ccccc2OC)c2ccccc21` (stereo unspecified), the half-maximal activity concentration (AC50) under setting [1] was 16.4 µM [falling, partial curve, poor fit].
Still for that read-out and setting: then `Cc1ccc2[nH]c(=O)c(-c3noc(CC(C)C)n3)cc2c1`, with 0.708 µM [rising, full curve, poor fit]; and `O=C(Nc1ccc(-c2nc3cccnc3s2)cc1)c1ccc(Br)o1`, with 0.58 µM [rising, full curve]; and `CC(=O)Oc1ccc(C(=O)Nc2cccc(NC(=O)c3ccco3)c2)cc1`, with 7.08 µM [falling, partial curve].
On the same count and under the same terms, under `COc1cc(/C=C2\CCC(C3CCCC3)C2=O)cc(OC)c1OC` (stereo unspecified) stands 6.31 µM [rising, partial curve, poor fit]; under `CCOC(=O)C1CCN(C(=O)COc2ccc(Cl)cc2)CC1`, 2.51 µM [falling, full curve].
Same read-out and setting: under `CCC(=O)NC(=S)Nc1ccc(NC(=O)c2ccc(Br)o2)cc1` stands 17.8 µM [falling, partial curve, poor fit]; under `CCc1c(C)[nH]n(CCC#N)c1=O`, 15.8 µM [falling, single point].
Take `CCN(CC)S(=O)(=O)c1cccc(NC(=O)CCSc2ccc(Cl)cc2)c1`: the AC50 under setting [1] was 23.1 µM [falling, single point].
Still for that read-out and setting: under `CCNc1nc(C#N)nc2c1ncn2-c1cc(F)cc(F)c1` stands 1.64 µM [rising, full curve, poor fit]; under `CCN1C(=O)c2cccc3c(S(=O)(=O)N(C(=O)c4cccnc4)c4ccc(OC)cc4)ccc1c23`, 0.411 µM [rising, full curve, poor fit].
Consider `CC(C)(C)C(=O)Nc1nc2c(s1)COc1ccccc1-2`, for which, under setting [1], the AC50 was 1.16 µM [falling, partial curve, poor fit].
Still for that read-out and setting: then `Cc1ccccc1OCC(=O)N(Cc1cccs1)C1CCS(=O)(=O)C1` (stereo unspecified), with 7.94 µM [falling, partial curve]; and `CCOc1ccc(-c2nn3c(-c4ccccc4)nnc3s2)cc1`, with 0.00411 µM [rising, full curve, poor fit].
As for `COc1cc(/C=C/c2ccc3cccc(O)c3n2)ccc1O`, the AC50 by setting is: under setting [1], 7.08 µM [rising, partial curve, poor fit]; (measured here: IkBa-CBG green luminescence) 22.4 µM [falling, single point].
Turning to `O=C(Cc1ccc(Cl)cc1Cl)Nc1ccc(OC(F)F)c(Cl)c1`, the AC50 under setting [1] is 9.2 µM [rising, partial curve].
As to `CCOC(=O)c1nn(-c2cccc(Cl)c2)c(C)c1C(C)=O`, under setting [1], the concentration at half-maximal activity (AC50) was 18.4 µM [rising, single point].
The same measure, in the same setting: then `O=C(Nc1cc2c(cc1Cl)OCCO2)c1ccco1`, with 14.6 µM [rising, single point]; and `CCN(CC)S(=O)(=O)c1ccc(N2CCOCC2)c(NC(=O)C23CC4CC(CC(Cl)(C4)C2)C3)c1`, with 0.58 µM [rising, full curve, poor fit]; and `COc1ccc(C(=O)O)cc1S(=O)(=O)N(CCc1ccccc1)Cc1ccccc1`, with 0.282 µM [falling, partial curve, poor fit].
As for `Cc1cccn2c(=O)nc(SCC(=O)NCCc3ccccc3)nc12`, the AC50 under setting [1] is 6.51 µM [rising, partial curve, poor fit].
With `O=c1[nH]c(CSc2nnc(COc3ccccc3)n2-c2ccccc2)nc2ccccc12`, under setting [1], the AC50 was 16.4 µM [falling, single point].
Consider `COc1ccc(CC(=O)Nc2sc(Cc3ccccc3)c(C)c2C(N)=O)cc1`, for which, under setting [1], the AC50 was 12.6 µM [rising, single point].
